Source: ChEMBL document CHEMBL2163249, “Exploration of natural compounds as sources of new bifunctional scaffolds targeting cholinesterases and beta amyloid aggregation: the case of chelerythrine” (Bioorg Med Chem, 2012)

Protein sequences, listed by entry. Tags and fused reporters are not part of them. Lines headed by an entry give the natural chain unless they say otherwise; changes in a name come on top.
UniProt P81908, whole entry: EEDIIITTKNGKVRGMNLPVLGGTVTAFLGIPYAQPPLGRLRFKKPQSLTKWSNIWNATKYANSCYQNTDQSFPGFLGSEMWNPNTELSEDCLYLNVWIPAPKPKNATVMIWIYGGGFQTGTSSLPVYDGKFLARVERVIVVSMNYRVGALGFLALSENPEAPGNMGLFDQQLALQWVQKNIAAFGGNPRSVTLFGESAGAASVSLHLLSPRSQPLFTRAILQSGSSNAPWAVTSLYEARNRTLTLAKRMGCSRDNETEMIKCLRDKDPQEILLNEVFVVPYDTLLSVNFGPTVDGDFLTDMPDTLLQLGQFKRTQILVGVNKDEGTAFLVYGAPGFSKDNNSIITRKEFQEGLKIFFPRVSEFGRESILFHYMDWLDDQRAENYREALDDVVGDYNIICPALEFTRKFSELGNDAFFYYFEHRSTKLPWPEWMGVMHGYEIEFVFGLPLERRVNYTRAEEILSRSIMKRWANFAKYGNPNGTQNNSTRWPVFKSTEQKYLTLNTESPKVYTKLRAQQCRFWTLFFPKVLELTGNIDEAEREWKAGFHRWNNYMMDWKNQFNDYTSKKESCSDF
UniProt O42275: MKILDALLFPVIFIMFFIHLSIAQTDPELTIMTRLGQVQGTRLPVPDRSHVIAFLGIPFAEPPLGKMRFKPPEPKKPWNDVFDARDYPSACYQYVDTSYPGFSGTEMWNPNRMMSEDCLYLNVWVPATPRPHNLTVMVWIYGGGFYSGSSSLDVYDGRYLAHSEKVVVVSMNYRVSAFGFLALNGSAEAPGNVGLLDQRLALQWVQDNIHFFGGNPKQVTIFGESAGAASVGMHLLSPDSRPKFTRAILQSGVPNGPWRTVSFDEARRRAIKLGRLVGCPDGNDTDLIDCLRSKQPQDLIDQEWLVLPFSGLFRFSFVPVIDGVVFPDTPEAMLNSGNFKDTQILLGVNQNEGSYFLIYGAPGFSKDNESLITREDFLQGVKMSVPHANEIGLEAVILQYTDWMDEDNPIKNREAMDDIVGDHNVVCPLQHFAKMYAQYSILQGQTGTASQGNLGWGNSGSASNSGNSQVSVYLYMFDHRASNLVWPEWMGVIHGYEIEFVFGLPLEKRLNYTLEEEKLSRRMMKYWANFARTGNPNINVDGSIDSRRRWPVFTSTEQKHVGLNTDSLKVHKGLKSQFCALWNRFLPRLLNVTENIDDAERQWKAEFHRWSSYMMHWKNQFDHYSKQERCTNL

Key:
[1] = molecular target: Cholinesterase (Equus caballus) (UniProt P81908); settings: at 2 mg/mL
[2] = molecular target: Acetylcholinesterase (Electrophorus electricus) (UniProt O42275); settings: at 2 mg/mL

CN1[C@@H]2CC[C@H]1C[C@@H](OC(=O)C(O)c1ccccc1)C2 (some centres not stated)
inhibition [1]: 5.53% | inhibition [2]: -3.08%
